Results: the supplement of paper PMC10849652
This is one part of the list.

Protein sequences, listed by entry. Tags and fused reporters are not part of them. Lines headed by an entry give the natural chain unless they say otherwise; changes in a name come on top.
UniProt Q9NV06: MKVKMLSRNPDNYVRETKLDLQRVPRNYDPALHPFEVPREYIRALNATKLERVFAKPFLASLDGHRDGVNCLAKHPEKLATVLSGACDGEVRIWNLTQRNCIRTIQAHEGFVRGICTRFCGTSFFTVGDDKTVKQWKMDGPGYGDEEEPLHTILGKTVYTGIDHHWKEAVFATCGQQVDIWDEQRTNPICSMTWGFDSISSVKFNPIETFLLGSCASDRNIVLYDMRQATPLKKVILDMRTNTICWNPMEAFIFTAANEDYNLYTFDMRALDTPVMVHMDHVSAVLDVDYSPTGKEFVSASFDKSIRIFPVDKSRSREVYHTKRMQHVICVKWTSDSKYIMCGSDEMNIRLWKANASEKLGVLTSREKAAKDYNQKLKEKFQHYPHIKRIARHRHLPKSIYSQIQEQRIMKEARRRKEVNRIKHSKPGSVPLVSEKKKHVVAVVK
UniProt P53634: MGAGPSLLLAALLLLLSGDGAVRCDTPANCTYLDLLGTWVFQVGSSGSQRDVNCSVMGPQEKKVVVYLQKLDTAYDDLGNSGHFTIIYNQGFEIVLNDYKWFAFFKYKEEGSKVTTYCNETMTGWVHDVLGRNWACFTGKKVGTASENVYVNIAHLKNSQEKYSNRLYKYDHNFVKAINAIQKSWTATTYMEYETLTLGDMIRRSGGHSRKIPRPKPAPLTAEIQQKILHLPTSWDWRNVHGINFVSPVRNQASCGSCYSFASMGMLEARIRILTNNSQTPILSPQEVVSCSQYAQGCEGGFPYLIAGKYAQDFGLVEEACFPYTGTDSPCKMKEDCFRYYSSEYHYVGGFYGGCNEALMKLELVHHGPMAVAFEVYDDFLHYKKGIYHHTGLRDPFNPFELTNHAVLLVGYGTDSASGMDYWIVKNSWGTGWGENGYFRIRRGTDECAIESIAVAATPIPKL
UniProt Q9UBR2: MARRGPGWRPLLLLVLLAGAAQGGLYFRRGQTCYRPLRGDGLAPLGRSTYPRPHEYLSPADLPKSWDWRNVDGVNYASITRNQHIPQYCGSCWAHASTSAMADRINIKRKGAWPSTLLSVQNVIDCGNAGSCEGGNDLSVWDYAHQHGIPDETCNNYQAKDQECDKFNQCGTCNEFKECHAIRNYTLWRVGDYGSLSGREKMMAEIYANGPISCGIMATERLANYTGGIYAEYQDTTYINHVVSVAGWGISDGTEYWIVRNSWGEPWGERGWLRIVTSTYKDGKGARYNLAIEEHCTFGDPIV
UniProt Q13948: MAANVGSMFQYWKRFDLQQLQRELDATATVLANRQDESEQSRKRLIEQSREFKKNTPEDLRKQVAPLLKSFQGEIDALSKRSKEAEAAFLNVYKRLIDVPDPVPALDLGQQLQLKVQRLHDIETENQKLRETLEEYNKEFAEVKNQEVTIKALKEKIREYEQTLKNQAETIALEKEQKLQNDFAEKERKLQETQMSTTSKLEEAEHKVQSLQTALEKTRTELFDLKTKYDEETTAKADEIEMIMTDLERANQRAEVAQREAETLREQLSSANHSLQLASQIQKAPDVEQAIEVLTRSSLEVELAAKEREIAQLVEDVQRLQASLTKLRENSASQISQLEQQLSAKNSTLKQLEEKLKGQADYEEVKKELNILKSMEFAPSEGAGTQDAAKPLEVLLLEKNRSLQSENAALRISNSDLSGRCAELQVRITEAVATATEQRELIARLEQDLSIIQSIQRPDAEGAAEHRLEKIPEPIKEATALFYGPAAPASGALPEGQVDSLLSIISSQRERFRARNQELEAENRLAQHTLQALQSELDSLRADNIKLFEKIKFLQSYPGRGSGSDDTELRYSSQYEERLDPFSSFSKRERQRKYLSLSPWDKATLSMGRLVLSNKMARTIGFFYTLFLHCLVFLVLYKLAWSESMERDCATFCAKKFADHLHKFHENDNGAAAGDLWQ
UniProt Q8WVC6: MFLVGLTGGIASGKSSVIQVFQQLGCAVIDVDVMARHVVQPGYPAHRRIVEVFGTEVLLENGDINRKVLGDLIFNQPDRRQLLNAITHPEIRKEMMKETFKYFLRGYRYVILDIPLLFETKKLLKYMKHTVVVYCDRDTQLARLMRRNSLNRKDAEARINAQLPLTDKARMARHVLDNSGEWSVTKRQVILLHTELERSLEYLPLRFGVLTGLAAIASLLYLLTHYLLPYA
UniProt P13498: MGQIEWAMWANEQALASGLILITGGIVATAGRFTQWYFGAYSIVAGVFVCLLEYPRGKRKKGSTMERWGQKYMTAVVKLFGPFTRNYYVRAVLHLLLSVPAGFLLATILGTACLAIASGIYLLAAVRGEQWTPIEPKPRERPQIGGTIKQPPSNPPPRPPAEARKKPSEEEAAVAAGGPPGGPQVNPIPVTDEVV
UniProt Q16643: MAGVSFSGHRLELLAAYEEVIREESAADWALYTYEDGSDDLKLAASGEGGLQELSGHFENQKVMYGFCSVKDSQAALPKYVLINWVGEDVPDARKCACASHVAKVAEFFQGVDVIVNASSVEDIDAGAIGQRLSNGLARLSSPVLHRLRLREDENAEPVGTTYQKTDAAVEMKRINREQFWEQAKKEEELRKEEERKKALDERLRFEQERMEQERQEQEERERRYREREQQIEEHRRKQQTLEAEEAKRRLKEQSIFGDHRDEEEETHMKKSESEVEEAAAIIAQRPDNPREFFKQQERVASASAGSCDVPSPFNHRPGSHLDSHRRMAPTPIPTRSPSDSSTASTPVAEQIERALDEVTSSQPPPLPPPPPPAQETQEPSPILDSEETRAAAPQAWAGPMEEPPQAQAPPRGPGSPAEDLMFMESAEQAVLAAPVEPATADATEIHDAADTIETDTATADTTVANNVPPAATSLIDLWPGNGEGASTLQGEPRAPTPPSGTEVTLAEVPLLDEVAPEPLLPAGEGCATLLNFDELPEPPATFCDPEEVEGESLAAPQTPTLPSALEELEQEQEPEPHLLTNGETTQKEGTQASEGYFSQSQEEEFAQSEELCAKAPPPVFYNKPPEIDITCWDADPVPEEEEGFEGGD
UniProt Q92564: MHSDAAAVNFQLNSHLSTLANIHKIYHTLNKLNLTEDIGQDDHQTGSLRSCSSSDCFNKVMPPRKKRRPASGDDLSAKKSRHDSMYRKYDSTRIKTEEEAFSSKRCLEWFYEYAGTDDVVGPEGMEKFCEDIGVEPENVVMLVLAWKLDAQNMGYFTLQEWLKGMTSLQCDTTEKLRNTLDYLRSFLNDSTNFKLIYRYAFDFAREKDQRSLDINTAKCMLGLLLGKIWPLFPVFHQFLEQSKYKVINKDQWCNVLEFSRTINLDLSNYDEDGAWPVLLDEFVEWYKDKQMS
UniProt P49711: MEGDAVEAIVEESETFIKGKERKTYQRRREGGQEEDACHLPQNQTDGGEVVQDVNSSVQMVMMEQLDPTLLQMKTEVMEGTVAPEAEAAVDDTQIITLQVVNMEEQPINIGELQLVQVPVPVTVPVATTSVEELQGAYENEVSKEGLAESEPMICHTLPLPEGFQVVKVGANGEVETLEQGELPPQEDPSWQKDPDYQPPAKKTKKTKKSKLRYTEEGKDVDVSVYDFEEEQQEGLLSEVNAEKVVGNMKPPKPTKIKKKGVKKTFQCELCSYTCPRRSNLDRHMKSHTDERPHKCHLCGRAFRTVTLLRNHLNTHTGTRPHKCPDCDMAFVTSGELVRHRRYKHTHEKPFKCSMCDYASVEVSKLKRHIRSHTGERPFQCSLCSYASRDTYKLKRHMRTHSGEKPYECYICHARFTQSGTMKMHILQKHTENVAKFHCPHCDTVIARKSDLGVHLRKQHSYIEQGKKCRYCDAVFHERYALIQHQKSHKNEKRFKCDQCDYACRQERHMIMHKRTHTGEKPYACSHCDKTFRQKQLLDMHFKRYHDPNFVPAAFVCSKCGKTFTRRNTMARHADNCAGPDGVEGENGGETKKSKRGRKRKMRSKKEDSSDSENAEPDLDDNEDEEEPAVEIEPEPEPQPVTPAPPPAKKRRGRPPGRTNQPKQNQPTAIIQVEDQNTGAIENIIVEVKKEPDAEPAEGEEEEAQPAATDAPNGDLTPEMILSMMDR
UniProt O95476: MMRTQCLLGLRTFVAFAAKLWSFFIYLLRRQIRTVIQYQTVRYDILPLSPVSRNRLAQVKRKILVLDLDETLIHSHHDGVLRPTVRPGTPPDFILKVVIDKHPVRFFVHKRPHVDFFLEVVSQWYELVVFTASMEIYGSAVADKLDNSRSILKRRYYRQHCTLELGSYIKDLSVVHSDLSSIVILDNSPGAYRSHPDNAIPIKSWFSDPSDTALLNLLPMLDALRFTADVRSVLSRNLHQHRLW
UniProt O00399, whole entry, looked up: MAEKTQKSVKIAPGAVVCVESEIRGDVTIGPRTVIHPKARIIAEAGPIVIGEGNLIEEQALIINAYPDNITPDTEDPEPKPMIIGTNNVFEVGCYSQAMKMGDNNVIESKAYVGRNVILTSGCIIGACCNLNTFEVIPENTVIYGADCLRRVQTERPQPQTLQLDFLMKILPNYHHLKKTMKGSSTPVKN
UniProt Q96GG9: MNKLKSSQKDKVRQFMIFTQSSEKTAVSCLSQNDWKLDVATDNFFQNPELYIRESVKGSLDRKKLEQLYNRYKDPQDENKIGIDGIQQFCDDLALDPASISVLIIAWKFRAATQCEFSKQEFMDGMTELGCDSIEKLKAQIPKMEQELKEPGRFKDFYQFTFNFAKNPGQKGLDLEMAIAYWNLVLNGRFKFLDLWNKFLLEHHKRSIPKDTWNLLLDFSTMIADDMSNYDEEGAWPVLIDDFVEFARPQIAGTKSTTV
UniProt Q8WV16: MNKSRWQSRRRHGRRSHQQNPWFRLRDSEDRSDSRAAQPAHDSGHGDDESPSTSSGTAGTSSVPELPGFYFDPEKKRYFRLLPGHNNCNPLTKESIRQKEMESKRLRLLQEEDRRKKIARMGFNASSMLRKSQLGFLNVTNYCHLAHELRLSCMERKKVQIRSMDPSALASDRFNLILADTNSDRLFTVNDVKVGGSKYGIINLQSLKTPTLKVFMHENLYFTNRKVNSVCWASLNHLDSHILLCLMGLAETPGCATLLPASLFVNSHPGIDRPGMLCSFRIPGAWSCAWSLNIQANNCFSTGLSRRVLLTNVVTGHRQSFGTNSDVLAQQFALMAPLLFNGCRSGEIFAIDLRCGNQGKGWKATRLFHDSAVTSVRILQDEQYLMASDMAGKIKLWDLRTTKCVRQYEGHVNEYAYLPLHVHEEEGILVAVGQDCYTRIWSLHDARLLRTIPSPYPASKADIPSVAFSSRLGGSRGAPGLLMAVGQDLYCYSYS
UniProt P33240: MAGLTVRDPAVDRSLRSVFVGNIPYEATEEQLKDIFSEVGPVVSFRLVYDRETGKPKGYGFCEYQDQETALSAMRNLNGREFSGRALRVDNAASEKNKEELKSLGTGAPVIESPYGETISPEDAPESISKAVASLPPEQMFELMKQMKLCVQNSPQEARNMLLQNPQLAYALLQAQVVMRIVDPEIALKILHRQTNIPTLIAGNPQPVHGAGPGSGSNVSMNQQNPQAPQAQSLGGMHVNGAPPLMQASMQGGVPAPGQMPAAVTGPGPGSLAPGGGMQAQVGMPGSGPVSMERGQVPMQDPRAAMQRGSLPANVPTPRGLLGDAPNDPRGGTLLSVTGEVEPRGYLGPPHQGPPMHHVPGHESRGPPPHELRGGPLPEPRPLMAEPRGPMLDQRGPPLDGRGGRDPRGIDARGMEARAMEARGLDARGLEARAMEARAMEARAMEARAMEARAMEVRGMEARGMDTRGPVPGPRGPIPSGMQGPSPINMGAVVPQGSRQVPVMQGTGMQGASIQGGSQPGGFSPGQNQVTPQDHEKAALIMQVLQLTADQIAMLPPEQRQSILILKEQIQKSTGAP

Experiments:
Experiment in all cases: log2 fold change, soluble protein after heating vs DMSO (PISA); higher = thermal stabilisation; K562 cells, 10 uM, 30 min; active = over 0.2 and 3.5 SD of the protein, either way, in both replicates (recomputed)
[1] = compound: CN1CCN(CCOc2cc(OC3CCOCC3)c3c(Nc4c(Cl)ccc5c4OCO5)ncnc3c2)CC1 [saracatinib]
How it was run: (§1)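 Aliquots of K562 cells (2×10^6 cells/mL) treated with 10 μM compound for 30 min were heated for 3 min over 48°C-58°C. After pooling and extraction in PBS with 0.5% NP-40 at 4°C, soluble protein from a 21,000xg, 90 min spin was quantified by TMTpro 16plex LC-MS/MS with channel sums equalised. Thermal stability is expressed against control samples, from duplicates, as a log2 fold change.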

[2] = compound: CN1CCN(c2nc(C3=C(c4c[nH]c5ccccc45)C(=O)NC3=O)c3ccccc3n2)CC1 [sotrastaurin]
How it was run: as §1

[3] = compound: CN1CCc2c(c3ccccc3n2Cc2ccc(C(=O)NO)cc2)C1 [Tubastatin A]
How it was run: as §1

[4] = compound: CNC(=O)C1=CC=CC=C1NC2=NC(=NC=C2Cl)NC3=C(C=C(C=C3)N4CCOCC4)OC
How it was run: as §1

[5] = compound: CNC(=O)c1ccc(Nc2ncc(C(F)(F)F)c(NCc3nccnc3N(C)S(C)(=O)=O)n2)cc1 [defactinib]
How it was run: as §1

[6] = compound: CNCc1ccc(-c2[nH]c3cc(F)cc4c3c2CCNC4=O)cc1 [rucaparib]
How it was run: as §1

[7] = compound: CNc1nc(-c2ccc3c(N)n[nH]c3c2)cc(N2C[C@@H](C(=O)NC3CCCCC3)CC[C@H]2C)n1
How it was run: as §1

[8] = compound: COC(=O)N[C@@H](C)CNc1nccc(-c2cn(C(C)C)nc2-c2cc(Cl)cc(NS(C)(=O)=O)c2F)n1 [encorafenib]
How it was run: as §1

[9] = compound: COC(=O)[C@H](CCSC)NC(=O)C1=C(C=C(C=C1)NC[C@H](CS)N)C2=CC=CC=C2
How it was run: as §1

[10] = compound: COC1=CC=C(C=C1)CN2C=CC3=C2C=C(C=C3)C(=O)NO
How it was run: as §1

[11] = compound: CON(C)C(=O)N1N=C(c2cc(F)ccc2F)S[C@@]1(CCCN)c1ccccc1 [filanesib]
How it was run: as §1

[12] = compound: CO[C@H]1C[C@@H]2CC[C@@H](C)[C@@](O)(O2)C(=O)C(=O)N2CCCC[C@H]2C(=O)O[C@H]([C@H](C)C[C@@H]2CC[C@H](n3cnnn3)[C@H](OC)C2)CC(=O)[C@H](C)/C=C(\C)[C@@H](O)[C@@H](OC)C(=O)[C@H](C)C[C@H](C)/C=C/C=C/C=C/1C [zotarolimus]
How it was run: as §1

[13] = compound: COc1cc(C(=O)O)ccc1NC(=O)[C@@H]1N[C@@H](CC(C)(C)C)[C@](C#N)(c2ccc(Cl)cc2F)[C@H]1c1cccc(Cl)c1F [idasanutlin]
How it was run: as §1

[14] = compound: COc1cc(Nc2ncc3c(n2)-c2ccc(Cl)cc2C(c2c(F)cccc2OC)=NC3)ccc1C(=O)O [alisertib]
How it was run: as §1

[15] = compound: COc1cc2nc(-c3cc(F)ccc3O)nc(N[C@@H]3CNC[C@H]3C(C)(C)O)c2cc1OC
How it was run: as §1

[16] = compound: COc1cc2ncnc(Nc3ccc(F)c(Cl)c3)c2cc1OCCCN1CCOCC1 [gefitinib]
How it was run: as §1

[17] = compound: COc1cccc2cc(-c3nc([C@H]4CC[C@H](C(=O)O)CC4)n4ncnc(N)c34)[nH]c12
How it was run: as §1

[18] = compound: CS(=O)(=O)CCNCc1ccc(-c2ccc3ncnc(Nc4ccc(OCc5cccc(F)c5)c(Cl)c4)c3c2)o1 [lapatinib]
How it was run: as §1

[19] = compound: CS(=O)(=O)N1CCN(Cc2cc3nc(-c4cccc5[nH]ncc45)nc(N4CCOCC4)c3s2)CC1 [pictilisib]
How it was run: as §1

[20] = compound: CN1CC[C@H](c2c(O)cc(O)c3c(=O)cc(-c4ccccc4Cl)oc23)[C@H](O)C1 [alvocidib]
How it was run: as §1

Measured: log2 fold change

DCAF13 (UniProt Q9NV06)
inactive: [1] -0.027 | [2] 0.001 | [3] 0.094 | [4] 0.074 | [5] 0.165 | [6] 0.19 | [7] 0.045 | [8] 0.07 | [9] 0.029 | [10] -0.083 | [11] 0.333 | [12] -0.01 | [13] 0.17 | [14] -0.067 | [15] -0.047 | [16] -0.063 | [17] -0.112 | [18] 0.083 | [19] -0.103

CTSC (UniProt P53634)
inactive: [1] 0.03 | [2] 0.046 | [3] -0.015 | [4] 0.052 | [5] 0.035 | [6] 0.031 | [7] -0.005 | [8] -0.082 | [9] 0.007 | [10] 0.019 | [11] -0.065 | [12] 0.001 | [13] -0.024 | [14] 0.021 | [15] -0.04 | [16] 0.036 | [17] 0.026 | [18] -0.031 | [19] 0.083

CTSZ (UniProt Q9UBR2)
inactive: [1] 0.025 | [2] 0.079 | [3] -0.056 | [4] 0.005 | [5] 0 | [6] -0.098 | [7] 0.012 | [8] -0.012 | [9] 0.027 | [10] 0.073 | [11] -0.05 | [12] 0.011 | [13] -0.019 | [14] -0.079 | [15] -0.172 | [16] 0.035 | [17] 0.07 | [18] 0.015 | [19] 0.176

CTBP2 isoform 2 (UniProt P56545)
inactive: [1] -0.003 | [2] 0.075 | [20] 0.011 | [3] 0.003 | [4] -0.057 | [5] -0.036 | [6] -0.082 | [7] -0.03 | [8] -0.038 | [9] 0.03 | [10] 0.063 | [11] -0.022 | [12] -0.001 | [13] -0.014 | [14] -0.002 | [15] -0.01 | [16] 0.039 | [17] 0.01 | [18] 0.005 | [19] 0.006

CTSB (UniProt P07858)
inactive: [1] 0.05 | [2] 0.064 | [3] 0.002 | [4] 0.052 | [5] -0.014 | [6] -0.073 | [7] -0.009 | [8] 0.013 | [9] -0.008 | [10] 0.044 | [11] -0.16 | [12] 0.044 | [13] 0.032 | [14] 0.007 | [15] -0.006 | [16] 0.024 | [17] 0.03 | [18] -0.016 | [19] 0.043

CUX1 isoform 2 (UniProt Q13948)
inactive: [1] -0.065 | [2] -0.012 | [3] 0.006 | [4] 0.03 | [5] -0.049 | [6] 0.061 | [7] 0.048 | [8] 0.056 | [9] -0.062 | [10] -0.095 | [11] 0.077 | [12] -0.007 | [13] -0.043 | [14] 0.012 | [15] -0.062 | [16] -0.029 | [17] 0.074 | [18] 0.009 | [19] 0.018

DCAKD (UniProt Q8WVC6)
inactive: [1] -0.065 | [2] -0.047 | [20] -0.091 | [3] 0.001 | [4] -0.037 | [5] -0.026 | [6] 0.025 | [7] 0.074 | [8] 0.042 | [9] -0.031 | [10] -0.26 | [11] -0.111 | [12] 0.002 | [13] 0.008 | [14] -0.035 | [15] -0.122 | [16] 0.112 | [17] 0.035 | [18] 0.049 | [19] 0.004

CYBA (UniProt P13498)
inactive: [1] 0.067 | [2] 0.033 | [3] -0.02 | [4] 0.01 | [5] 0.014 | [6] -0.035 | [7] -0.013 | [8] 0.031 | [9] 0.008 | [10] -0.06 | [11] -0.189 | [12] -0.067 | [13] 0.017 | [14] -0.044 | [15] -0.171 | [16] -0.007 | [17] 0.067 | [18] -0.034 | [19] -0.047

CYB5B, A0A499FJ32
inactive: [1] -0.015 | [2] 0.027 | [20] 0.04 | [3] 0.015 | [4] 0.005 | [5] -0.004 | [6] -0.258 | [7] 0.004 | [8] 0.046 | [9] -0.076 | [10] -0.1 | [11] -0.051 | [12] -0.084 | [13] -0.051 | [14] -0.047 | [15] 0.161 | [16] -0.058 | [17] 0.063 | [18] -0.056 | [19] 0.164

DBN1 isoform 3 (UniProt Q16643)
inactive: [1] 0.121 | [2] 0.001 | [3] -0.094 | [4] -0.042 | [5] -0.06 | [6] 0.041 | [7] -0.011 | [8] 0.097 | [9] -0.033 | [10] 0.012 | [11] 0.182 | [12] 0.074 | [13] 0.061 | [14] -0.023 | [15] -0.024 | [16] 0.05 | [17] 0.084 | [18] -0.041 | [19] -0.111

DCUN1D4 isoform 3 (UniProt Q92564)
inactive: [1] -0.01 | [2] -0.07 | [20] -0.204 | [3] 0.055 | [5] -0.259 | [6] 0.01 | [7] 0.029 | [8] -0.183 | [9] 0.168 | [10] 0.017 | [11] -0.016 | [12] -0.096 | [13] -0.03 | [14] 0.023 | [17] -0.107

Random excerpt: 2 entries already listed.
DCAKD (UniProt Q8WVC6)
inactive: [1] -0.065 | [2] -0.047 | [20] -0.091 | [3] 0.001 | [4] -0.037 | [5] -0.026 | [6] 0.025 | [7] 0.074 | [8] 0.042 | [9] -0.031 | [10] -0.26 | [11] -0.111 | [12] 0.002 | [13] 0.008 | [14] -0.035 | [15] -0.122 | [16] 0.112 | [17] 0.035 | [18] 0.049 | [19] 0.004

CTSZ (UniProt Q9UBR2)
inactive: [1] 0.025 | [2] 0.079 | [3] -0.056 | [4] 0.005 | [5] 0 | [6] -0.098 | [7] 0.012 | [8] -0.012 | [9] 0.027 | [10] 0.073 | [11] -0.05 | [12] 0.011 | [13] -0.019 | [14] -0.079 | [15] -0.172 | [16] 0.035 | [17] 0.07 | [18] 0.015 | [19] 0.176

Remaining list, next part

CTCF (UniProt P49711)
inactive: [1] -0.089 | [2] -0.115 | [20] 0.232 | [3] -0.133 | [4] -0.03 | [5] 0.243 | [6] 0.255 | [7] 0.012 | [8] 0.05 | [9] 0.011 | [10] -0.029 | [11] 0.258 | [12] -0.072 | [13] 0.276 | [14] -0.132 | [15] -0.088 | [16] -0.077 | [17] -0.127 | [18] 0.114 | [19] -0.013

CTDNEP1 (UniProt O95476)
inactive: [1] 0.08 | [2] -0.169 | [20] 0.048 | [3] 0.214 | [4] 0.092 | [5] 0.077 | [7] 0.125 | [9] -0.083 | [11] 0.038 | [12] 0.284 | [13] 0.045 | [19] 0.016

DCTN6 (UniProt O00399)
inactive: [1] 0.014 | [2] 0.035 | [20] 0.009 | [3] 0.02 | [4] -0.009 | [5] -0.104 | [6] 0.014 | [7] -0.059 | [8] 0.055 | [9] 0.014 | [10] -0.052 | [11] 0.019 | [12] 0.002 | [13] 0.025 | [14] -0.022 | [15] 0.102 | [16] -0.057 | [17] 0.043 | [18] 0.001 | [19] 0.002

DCUN1D1 (UniProt Q96GG9)
inactive: [1] 0.032 | [2] -0.001 | [3] -0.009 | [4] 0.007 | [5] -0.033 | [6] -0.026 | [7] -0.02 | [8] 0.014 | [9] -0.011 | [10] 0.065 | [11] -0.003 | [12] 0.015 | [13] -0.062 | [14] 0.008 | [15] -0.021 | [16] 0.004 | [17] 0.031 | [18] 0.019 | [19] 0.015

DCAF4 (UniProt Q8WV16)
inactive: [1] -0.097 | [2] 0.027 | [6] -0.346 | [7] 0.193 | [8] 0.103 | [11] 0.018 | [14] -0.076 | [16] -0.012 | [17] 0.005 | [19] 0.074

CSTF2 (UniProt P33240)
inactive: [1] -0.02 | [2] 0.105 | [3] -0.064 | [4] -0.023 | [5] 0.023 | [6] 0.034 | [7] -0.092 | [8] -0.08 | [9] -0.028 | [10] -0.052 | [11] 0.005 | [12] -0.009 | [13] 0.013 | [14] -0.016 | [15] -0.005 | [16] -0.07 | [17] 0.023 | [18] 0.021 | [19] 0.069
